# Where “and” joins values, the source holds several entries; their conditions need not be identical. Equal values may be shown once. Screen size: about 300,000 compounds; about 5,400 (1.8%) were called active. The shares of active, inactive and inconclusive entries below differ from those in the screen. The call rests on the fitted dose curve; tested in HEK293 cells. A potency beside an inconclusive call is a rough fit, not a confirmed value.
# Experiment: qHTS for inhibitors of binding or entry into cells for Marburg Virus
# Conditions: Marburg virus pseudotyped entry inhibition, cell reporter; series mostly up to 37.8 µM
# Potency means the concentration at half of the fitted maximal effect.
row,Structure (SMILES),Potency
1,CSc1nc2ccc(NC(=O)c3ccc(=O)n(C)n3)cc2s1,inactive
2,CC(C)C1C(=O)N(Cc2cn(CCC3OCCO3)nn2)CCS(=O)(=O)N1Cc1ccc(-c2ccccc2Cl)cc1 (stereo not drawn),"inconclusive: 0.0315 µM [inhibitor, full curve, poor fit]"
3,CC(CC(=O)Nc1ncc([N+](=O)[O-])s1)c1ccccc1 (stereo not drawn),"inconclusive: 35.5 µM [inhibitor, single point]"
4,COc1ccc(NC(=S)NNC(=S)Nc2cccc(C(F)(F)F)c2)cc1,"inconclusive: 35.5 µM [inhibitor, single point]"
5,Cn1ncc2c(Nc3cccc4ccccc34)ncnc21,inactive
6,CCN(c1ccccc1)c1nnc(NC(=O)Nc2ccccc2F)s1,inactive
7,CCOC(=O)c1c(/N=C/c2c(O)n(-c3ccc(F)cc3)c(=S)[nH]c2=O)sc2c1CCCC2,"inconclusive: 35.5 µM [inhibitor, single point]"
8,CN(C(=O)CSc1nnc(Cc2cccc3ccccc23)n1N)C1CCS(=O)(=O)C1 (stereo not drawn),inactive
9,Cc1cccnc1NC(=O)Nc1cccc(C(F)(F)F)c1,"inconclusive: 6.51 µM [inhibitor, partial curve, poor fit]"
10,Cn1cnc2c(cnn2C)c1=O,"inconclusive: 6.31 µM [inhibitor, partial curve, poor fit]"
11,COc1ccc(-n2c(SCC(=O)NNC(=O)c3ccc(C)cc3)nnc2-c2ccncc2)cc1,"inconclusive: 6.31 µM [inhibitor, single point]"
12,CCN(C(=O)C1CCCN(S(=O)(=O)c2c(C)noc2/C=C/N(C)C)C1)c1cccc(C)c1 (stereo not drawn),"inconclusive: 35.5 µM [inhibitor, single point]"
13,CCOC(=O)c1ccc(NC(=O)CC2C(=O)OCCN2CC)cc1 (stereo not drawn),"inconclusive: 22.4 µM [activator, partial curve, poor fit]"
14,O=C(CNC(=O)c1cccc(Br)c1)N/N=C/c1cn[nH]c1-c1ccccc1,"inconclusive: 4.11 µM [inhibitor, single point]"
15,CCOC(=O)c1ccc(Nc2nc(N3CCOCC3)nc(N3CCOCC3)n2)cc1,"inconclusive: 5.01 µM [inhibitor, single point]"
16,CC(C)(C)c1cc(CCC(=O)NCc2cccnc2)cc(C(C)(C)C)c1O,inactive
17,Nc1c(C(=O)Nc2ccc3c(c2)OCCO3)nnn1Cc1cccc(Br)c1,inactive
18,Cc1ccsc1C1Nc2ccc3ncccc3c2C2=C1C(=O)CCC2 (stereo not drawn),"inconclusive: 5.17 µM [inhibitor, partial curve, poor fit]"
19,CCOc1ccc(NC(=O)C(Cc2ccccc2)N2C(=O)c3cccc4cccc(c34)C2=O)cc1 (stereo not drawn),"inconclusive: 14.1 µM [inhibitor, single point]"
20,Cc1ccc2nc(/C(C#N)=C\c3ccc(N4CCCCC4)c([N+](=O)[O-])c3)[nH]c2c1,"inconclusive: 16.4 µM [inhibitor, single point]"
21,Fc1ccc(Nc2c3c(nc4ccccc24)CCC3)cc1,"inconclusive: 35.5 µM [inhibitor, single point] and inconclusive: 7.94 µM [inhibitor, full curve, poor fit]"
22,COc1ccc(CC(=O)Nc2cccc(S(=O)(=O)N3CCCCCC3)c2)cc1OC,"inconclusive: 20 µM [inhibitor, partial curve, poor fit]"
23,NC(Cc1nc2ccccc2[nH]1)c1ccc(Cl)cc1 (stereo not drawn),"inconclusive: 35.5 µM [inhibitor, single point]"

# 3 entries drawn at random from those above:
row,Structure (SMILES),Potency
3,CC(CC(=O)Nc1ncc([N+](=O)[O-])s1)c1ccccc1 (stereo not drawn),"inconclusive: 35.5 µM [inhibitor, single point]"
20,Cc1ccc2nc(/C(C#N)=C\c3ccc(N4CCCCC4)c([N+](=O)[O-])c3)[nH]c2c1,"inconclusive: 16.4 µM [inhibitor, single point]"
14,O=C(CNC(=O)c1cccc(Br)c1)N/N=C/c1cn[nH]c1-c1ccccc1,"inconclusive: 4.11 µM [inhibitor, single point]"

# The list goes on.

row,Structure (SMILES),Potency
1,COc1cc(C)ccc1NC(=O)Cc1csc(NC(=O)Nc2ccccc2OC)n1,"inconclusive: 11.2 µM [inhibitor, partial curve, poor fit]"
2,CCc1ccc(CN(Cc2ccco2)c2cnc(S(C)(=O)=O)nc2C(=O)Nc2ccccc2Cl)cc1,"inconclusive: 22.4 µM [inhibitor, single point]"
3,O=C(c1ccc(Cl)nc1)c1cccs1,inactive
4,CCN(CC)C(=O)C1CCCN(C(=O)Nc2ccc3nsnc3c2)C1 (stereo not drawn),inactive
5,O=C(Nc1sc2c(c1C(=O)NCc1ccco1)CCCC2)c1cc(=O)c2ccccc2o1,inactive
6,COc1ccc(OC)c(-c2csc(NC(=O)Cc3ccccc3)n2)c1,"inconclusive: 35.5 µM [inhibitor, single point]"
7,O=C(N/N=C/c1ccccc1Cl)c1cccc(F)c1,"inconclusive: 3.66 µM [activator, partial curve]"
8,Cc1ccc(SCc2ccc(C(=O)NCc3ccncc3)cc2)cc1,"inconclusive: 29.1 µM [inhibitor, single point]"
9,CC1(C)COC(=S)N1CCC#N,inactive
10,CNC(=S)N/N=C/c1ccc(-c2ccc(Cl)c([N+](=O)[O-])c2)o1,"inconclusive: 0.562 µM [inhibitor, full curve, poor fit]"
11,O=C(Nc1nc2ccc(S(=O)(=O)N3CCCC3)cc2s1)C1CCCCC1,"inconclusive: 3.55 µM [inhibitor, partial curve, poor fit]"
12,CN(Cc1nc(Cc2ccccc2F)no1)CC1(N2CCOCC2)CCCCC1,"inconclusive: 12.6 µM [inhibitor, partial curve, poor fit]"
13,Cc1ccccc1Nc1nc(N)nc(COC(=O)c2ccc(O)cc2)n1,inactive
14,O=C(COc1ccc(Cl)cc1)Nc1ccccc1Cl,inactive
15,Cc1ccc(NC(=O)CCc2nnc3n(C)c(=O)c4sccc4n23)cc1C,inactive
16,NC(=O)CSc1n[nH]c(=O)n1CCc1ccccc1,inactive
17,Nc1c(C(=O)NCc2ccc3c(c2)OCO3)nnn1Cc1ccc(Br)cc1,"inconclusive: 35.5 µM [inhibitor, single point]"
18,Nc1ccc2nn(-c3cccc4ccccc34)nc2c1,"inconclusive: 0.631 µM [activator, full curve, poor fit]"
19,O=S(=O)(NCC(c1ccc2c(c1)OCO2)N1CCOCC1)c1ccc(Cl)cc1 (stereo not drawn),"inconclusive: 0.708 µM [inhibitor, partial curve, poor fit]"
20,CCOc1ccc(S(=O)(=O)N2CCN(Cc3ccco3)CC2)cc1,inactive
21,CCOC(=O)c1cc(CC)sc1NC(=O)c1ccc2c(c1)OCCO2,"inconclusive: 0.794 µM [activator, partial curve, poor fit]"
22,CCc1ccccc1NNC(=O)c1snnc1C,"inconclusive: 4.47 µM [inhibitor, partial curve, poor fit]"
23,Cc1cc(NC(=O)Cn2nc(C(=O)O)c3ccccc3c2=O)c([N+](=O)[O-])cc1C,"inconclusive: 12.6 µM [activator, partial curve, poor fit]"

row,Structure (SMILES),Potency
1,Cn1nccc1C(=O)Nc1sc2c(c1C(N)=O)CCCC2,inactive
2,O=C(c1cc(-c2ccc(Br)cc2)nc2ccccc12)N1CCN(c2ccccc2O)CC1,"inconclusive: 5.01 µM [inhibitor, full curve, poor fit]"
3,O=[N+]([O-])c1cc(Cl)ccc1-c1nc(-c2ccccc2)no1,"inconclusive: 3.16 µM [activator, partial curve, poor fit]"
4,CCC(=O)N1CCc2cc(Br)cc(S(=O)(=O)CCC(=O)NCc3ccc(Cl)cc3)c21,inactive
5,COc1cccc(N=Cc2c(O)c3ccccc3oc2=O)c1,inactive
6,COc1ccccc1C1CCN(Cc2ccc3ccccc3c2)CC1,active: 7.08 µM
7,COc1ccc(Cn2c(-c3ccc(Cl)cc3)c[n+]3ccccc23)cc1,"inconclusive: 17.8 µM [inhibitor, single point]"
8,COc1ccc(-c2nc(-c3ccc4c(c3)OCO4)[nH]c2-c2ccc(OC)cc2)cc1,"inconclusive: 35.5 µM [inhibitor, partial curve, poor fit]"
9,O=C(COc1ccccc1)Nc1ccc2c(c1)nc1n2CCOC1,"inconclusive: 29.1 µM [activator, single point]"
10,O=C1CC(c2ccc3c(c2)OCO3)Sc2nc3ccccc3n21 (stereo not drawn),"inconclusive: 13 µM [inhibitor, single point]"
11,Cc1ccc(Oc2c(C(F)(F)F)oc3c(CN4CCC(C)CC4)c(O)ccc3c2=O)cc1,inactive
12,Cc1nc2cc(-c3ccsc3-n3c(C)ccc3C)[nH]n2c(=O)c1Cl,inactive
13,Clc1cccc(C[n+]2cc(-c3ccccc3)n3c2CCC3)c1,"inconclusive: 1.64 µM [activator, full curve, poor fit]"
14,O=C(NCc1ccncc1)C(=O)NCC(c1ccccc1)c1ccccc1,inactive
15,CN(CC(=O)Nc1cccc(F)c1)C(=O)c1cccnc1Sc1ccc(Cl)cc1,"inconclusive: 35.5 µM [inhibitor, single point]"
16,CSc1nc(N2CCOCC2)c2c3c(sc2n1)CCC3,"inconclusive: 6.31 µM [activator, single point]"
17,COc1cccc(S(=O)(=O)N2CCN(C(=O)c3ccco3)CC2)c1,"inconclusive: 35.5 µM [inhibitor, partial curve, poor fit]"
18,CCC(=O)Nc1nc2ccccc2n1Cc1ccccc1C,"inconclusive: 22.4 µM [inhibitor, single point]"
19,CCC(C)NC(=O)c1cc(-c2cccc(OC)c2)on1 (stereo not drawn),"inconclusive: 1.78 µM [activator, partial curve, poor fit]"
20,Oc1nc(-c2ccc(Br)cc2)n2ccncc12,"inconclusive: 17.8 µM [activator, partial curve, poor fit]"
21,CC(=O)c1cccc(NC(=O)c2ccc(S(=O)(=O)N3CCCC3)cc2)c1,inactive
22,Cn1c(=O)c2c(nc(SCC(=O)N3c4ccccc4CCc4ccccc43)n2C)n(C)c1=O,"inconclusive: 2.06 µM [inhibitor, partial curve, poor fit]"

# Reference: PubChem BioAssay AID540276 (National Center for Advancing Translational Sciences (NCATS), 2011)
